Reference: PubChem BioAssay AID1259308 (NCATS, 2017)
Screen: 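Genes whose loss raises luciferase production in HEK293 cells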 (primary screen). System: human HEK293 embryonic kidney cells stably expressing firefly luciferase (HEK-CMV-Luc2-Hygro). Reagent: single siRNA against human genes, 0.8 pmol siRNA per well. Time to read-out: 72 h. Read-out: 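Reporter luminescence and viable-cell signal on separate replicate plates, given as percent of non-targeting control and median/MAD z-scores, plus per-cell luciferase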. Scale: total luciferase, z-score: higher = more reporter protein produced. Call rule: 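Active when the median/MAD z-score for overall luciferase is greater than 3; a gene was taken forward for validation with new siRNAs if at least two of its three siRNAs passed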. Calls: active = raised luciferase; inactive = no rise.
The deposit covers about 59,000 reagents; this is a random part of them. In the full data, about 1,510 (2.6%) were called active. 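Calls use total luciferase alone and ignore viability, so some active siRNAs may act by altering cell number.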 A number with no mark means an inactive call. Reagents against one gene are numbered here. Further read-outs or replicates are left out here.

SEMA6D (semaphorin 6D) #1
- total luciferase, z-score: -2.24

SEMA6D (semaphorin 6D) #2
- total luciferase, z-score: -0.805

SEMA6D (semaphorin 6D) #3
- total luciferase, z-score: 0.328

VPS13D (vacuolar protein sorting 13 homolog D) #1
- total luciferase, z-score: -2.01

VPS13D (vacuolar protein sorting 13 homolog D) #2
- total luciferase, z-score: 0.79

VPS13D (vacuolar protein sorting 13 homolog D) #3
- total luciferase, z-score: -0.186

RPL18AP16 (ribosomal protein L18a pseudogene 16) #1
- total luciferase, z-score: -0.109

RPL18AP16 (ribosomal protein L18a pseudogene 16) #2
- total luciferase, z-score: -2.73

RPL18AP16 (ribosomal protein L18a pseudogene 16) #3
- total luciferase, z-score: -0.248

LPO (lactoperoxidase) #1
- total luciferase, z-score: 0.298

LPO (lactoperoxidase) #2
- total luciferase, z-score: -1.4

LPO (lactoperoxidase) #3
- total luciferase, z-score: 1.73

LOC284009 #1
- total luciferase, z-score: 1.19

LOC284009 #2
- total luciferase, z-score: 0.966

LOC284009 #3
- total luciferase, z-score: 0.218

RABGEF1 (RAB guanine nucleotide exchange factor 1) #1
- total luciferase, z-score: -0.3

RABGEF1 (RAB guanine nucleotide exchange factor 1) #2
- total luciferase, z-score: 2.53

RABGEF1 (RAB guanine nucleotide exchange factor 1) #3
- total luciferase, z-score: 0.401

IL37 (interleukin 37) #1
- total luciferase, z-score: 1.65

IL37 (interleukin 37) #2
- total luciferase, z-score: 0.137

IL37 (interleukin 37) #3
- total luciferase, z-score: 1.29

GIMAP7 (GTPase, IMAP family member 7) #1
- total luciferase, z-score: -0.172

GIMAP7 (GTPase, IMAP family member 7) #2
- total luciferase, z-score: -0.774

GIMAP7 (GTPase, IMAP family member 7) #3
- total luciferase, z-score: -0.986

GPM6B (glycoprotein M6B) #1
- total luciferase, z-score: 1.09

GPM6B (glycoprotein M6B) #2
- total luciferase, z-score: -0.03

GPM6B (glycoprotein M6B) #3
- total luciferase, z-score: 0.203

ZBTB12 (zinc finger and BTB domain containing 12) #1
- total luciferase, z-score: 0.49

ZBTB12 (zinc finger and BTB domain containing 12) #2
- total luciferase, z-score: -2.38

ZBTB12 (zinc finger and BTB domain containing 12) #3
- total luciferase, z-score: 1.67

CCT5 (chaperonin containing TCP1 subunit 5) #1
- total luciferase, z-score: 1.58

CCT5 (chaperonin containing TCP1 subunit 5) #2
- total luciferase, z-score: -0.557

CCT5 (chaperonin containing TCP1 subunit 5) #3
- total luciferase, z-score: 0.86

Sorted by “total luciferase, z-score” (lowest first): 3 of the entries above
GIMAP7 (GTPase, IMAP family member 7) #1
- total luciferase, z-score: -0.172

IL37 (interleukin 37) #2
- total luciferase, z-score: 0.137

IL37 (interleukin 37) #3
- total luciferase, z-score: 1.29
